The list shows only some results of the screen, not a fair sample: it is rich in T/C values a quarter to a half above the control, in often repeated tests (any T/C) and in doses without a T/C. Other doses and runs of a compound stand elsewhere. T/C is the treated group as % of the vehicle group. Some doses have a count of surviving animals in place of a T/C: the source holds a T/C of zero for them, seemingly a mark for toxic or unscored doses. Some doses without a T/C left all or most animals alive at the check, yet need not have been tolerated: survival well below the control is almost never listed, so the zero probably covers shortened survival too. Survivors were counted at the toxicity check, usually on the fifth day, unless a day is given; later deaths do not show. Schedule codes are those of the source, taken here to give the interval after Q, in days (D) or hours (H), and the number of doses after X. Some molecules as drawn cover several salts, stereoisomers or complexes of the source; a dose is that of the sample tested. Signs of the kind (2×) count equal records among those shown. Some doses were run more than once; their values stand side by side, smallest first. Where survival is the endpoint, the PubChem record calls one and a half times the control and up active, and a quarter to a half above the control has no call in these data; cut-offs in other NCI protocols can differ. Some T/C values carry the count of animals alive at the toxicity check (mostly the fifth day); without a count, all were alive then.
System: BDF1 mice, B16 melanoma ip, median survival T/C
Experiment: NCI In Vivo Anticancer Drug Screen. Data for tumor model B16 Melanoma (intraperitoneal) in B6D2F1 (BDF1) mice
Settings: T/C endpoint: median survival time, higher T/C = longer survival
Summary of the method: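 Read-out: survival or tumor size, given as treated/control ratio. Controls received vehicle only; animals bore transplantable tumors.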

With COc1cc(NS(C)(=O)=O)ccc1Nc1c2ccccc2nc2ccccc12 the T/C (dose: 8.0 mg/kg/injection, schedule: Q04DX003 (ip), vehicle: other, evaluated on day 60) was 186 and 188 % of control, the T/C (dose: 8.0 mg/kg/injection, schedule: Q04DX003 (ip), vehicle: other, evaluated on day 70) was 135 [9 of 10 alive] and 149 % of control and the survivor count (dose: 10.0 mg/kg/injection, schedule: Q01DX009 (ip), vehicle: saline) was 10 of 10. For the same compound, the survivor count (dose: 12.0 mg/kg/injection, schedule: Q01DX009 (ip), vehicle: Klucel (hydroxypropylcellulose) (HPC)) was 9 of 10 and 10 of 10, the T/C (dose: 12.5 mg/kg/injection, schedule: Q01DX001 (ip), vehicle: saline) was 147 % of control and the survivor count (dose: 12.5 mg/kg/injection, schedule: Q01DX009 (ip), vehicle: saline with Tween-80) was 6 of 6. For the same compound, the survivor count (dose: 13.0 mg/kg/injection, schedule: Q01DX005 (iv), vehicle: lactic acid) was 10 of 10, the survivor count (dose: 16.0 mg/kg/injection, schedule: Q01DX001 (ip), vehicle: lactic acid) was 7 of 10 and the survivor count (dose: 16.0 mg/kg/injection, schedule: Q01DX009 (ip), vehicle: clinical formulation) was 8 of 10 (2×). For the same compound, the survivor count (dose: 16.0 mg/kg/injection, schedule: Q01DX009 (ip), vehicle: other) was 8 of 10 and 10 of 10, the survivor count (dose: 16.0 mg/kg/injection, schedule: Q01DX009 (oral), vehicle: lactic acid) was 8 of 10 and the survivor count (dose: 16.0 mg/kg/injection, schedule: Q01DX009 (oral), vehicle: other) was 8 of 10 and 10 of 10. The survivor count (dose: 16.0 mg/kg/injection, schedule: Q03HX016 (oral), vehicle: lactic acid) was 3 of 10, the T/C (dose: 16.0 mg/kg/injection, schedule: Q04DX003 (ip), vehicle: other, evaluated on day 8) was 142 % of control and the T/C (dose: 16.0 mg/kg/injection, schedule: Q04DX003 (ip), vehicle: other, evaluated on day 10) was 127 % of control [8 of 9 alive]. The T/C (dose: 16.0 mg/kg/injection, schedule: Q04DX003 (ip), vehicle: other, evaluated on day 60) was 188 % of control, the T/C (dose: 16.0 mg/kg/injection, schedule: Q04DX003 (ip), vehicle: other, evaluated on day 70) was 166 % of control and the survivor count (dose: 16.0 mg/kg/injection, schedule: Q04DX003 (ip), vehicle: other) was 4 of 10 and 7 of 10. For the same compound, the T/C (dose: 16.0 mg/kg/injection, schedule: Q04DX003 (oral), vehicle: lactic acid) was 131 % of control, the survivor count (dose: 17.0 mg/kg/injection, schedule: Q01DX009 (ip), vehicle: Klucel (hydroxypropylcellulose) (HPC)) was 10 of 10 and the survivor count (dose: 25.0 mg/kg/injection, schedule: Q01DX009 (ip), vehicle: Klucel (hydroxypropylcellulose) (HPC)) was 10 of 10. The survivor count (dose: 25.0 mg/kg/injection, schedule: Q01DX009 (ip), vehicle: saline with Tween-80) was 6 of 6, the T/C (dose: 25.0 mg/kg/injection, schedule: Q01DX009 (ip), vehicle: saline) was 149 % of control and the survivor count (dose: 26.0 mg/kg/injection, schedule: Q01DX005 (iv), vehicle: lactic acid) was 3 of 10. For the same compound, the survivor count (dose: 30.0 mg/kg/injection, schedule: Q04DX003 (ip), vehicle: clinical formulation) was 5 of 10 (2×), the survivor count (dose: 32.0 mg/kg/injection, schedule: Q01DX001 (ip), vehicle: lactic acid) was 0 of 10 and the survivor count (dose: 32.0 mg/kg/injection, schedule: Q03HX016 (oral), vehicle: lactic acid) was 1 of 10. For the same compound, the survivor count (dose: 32.0 mg/kg/injection, schedule: Q04DX003 (ip), vehicle: other) was 7 of 10 (2×), the T/C (dose: 32.0 mg/kg/injection, schedule: Q04DX003 (oral), vehicle: lactic acid) was 132 % of control [9 of 10 alive] and the survivor count (dose: 37.0 mg/kg/injection, schedule: Q01DX009 (ip), vehicle: Klucel (hydroxypropylcellulose) (HPC)) was 9 of 10. For the same compound, the survivor count (dose: 50.0 mg/kg/injection, schedule: Q01DX009 (ip), vehicle: saline with Tween-80) was 4 of 6, the survivor count (dose: 50.0 mg/kg/injection, schedule: Q01DX009 (ip), vehicle: saline) was 10 of 10 and the survivor count (dose: 50.0 mg/kg/injection, schedule: Q04DX003 (ip), vehicle: Klucel (hydroxypropylcellulose) (HPC)) was 10 of 10. For the same compound, the survivor count (dose: 64.0 mg/kg/injection, schedule: Q01DX001 (oral), vehicle: lactic acid) was 7 of 10, the survivor count (dose: 64.0 mg/kg/injection, schedule: Q04DX003 (ip), vehicle: other) was 1 of 10 and 2 of 10 and the survivor count (dose: 64.0 mg/kg/injection, schedule: Q04DX003 (oral), vehicle: lactic acid) was 7 of 10. For the same compound, the survivor count (dose: 64.0 mg/kg/injection, schedule: Q04DX003 (oral), vehicle: other) was 10 of 10, the survivor count (dose: 64.0 mg/kg/injection, schedule: Q08DX002 (oral), vehicle: lactic acid) was 9 of 10 and the survivor count (dose: 100.0 mg/kg/injection, schedule: Q01DX001 (ip), vehicle: saline) was 4 of 10. For the same compound, the survivor count (dose: 100.0 mg/kg/injection, schedule: Q01DX009 (ip), vehicle: saline with Tween-80) was 0 of 6, the survivor count (dose: 100.0 mg/kg/injection, schedule: Q04DX003 (ip), vehicle: Klucel (hydroxypropylcellulose) (HPC)) was 10 of 10 and the survivor count (dose: 128.0 mg/kg/injection, schedule: Q01DX001 (oral), vehicle: lactic acid) was 3 of 10. The survivor count (dose: 128.0 mg/kg/injection, schedule: Q04DX003 (ip), vehicle: other) was 0 of 10 (2×), the survivor count (dose: 128.0 mg/kg/injection, schedule: Q04DX003 (oral), vehicle: other) was 9 of 10 and 10 of 10 and the survivor count (dose: 128.0 mg/kg/injection, schedule: Q08DX002 (oral), vehicle: lactic acid) was 2 of 10. For the same compound, the survivor count (dose: 200.0 mg/kg/injection, schedule: Q01DX001 (ip), vehicle: saline sonified) was 6 of 6, the survivor count (dose: 200.0 mg/kg/injection, schedule: Q04DX003 (ip), vehicle: Klucel (hydroxypropylcellulose) (HPC)) was 10 of 10 and the survivor count (dose: 400.0 mg/kg/injection, schedule: Q04DX003 (ip), vehicle: Klucel (hydroxypropylcellulose) (HPC)) was 10 of 10.

Source: PubChem BioAssay AID192 (DTP/NCI, 2004)
